No constants are given. Whether binding was seen depends on the method and setting. In cells and extracts the contact can be indirect. Some results given as binding are weak or reduced against the parent protein; the word gives no strength.
Molecular target: HA-GPS2 stably expressed in A549 cells (A549^GPS2+) (human) (UniProt Q13227)
Experiment: co-IP

Chains of the proteins cited; added tags and fusions are not shown.
UniProt Q13227: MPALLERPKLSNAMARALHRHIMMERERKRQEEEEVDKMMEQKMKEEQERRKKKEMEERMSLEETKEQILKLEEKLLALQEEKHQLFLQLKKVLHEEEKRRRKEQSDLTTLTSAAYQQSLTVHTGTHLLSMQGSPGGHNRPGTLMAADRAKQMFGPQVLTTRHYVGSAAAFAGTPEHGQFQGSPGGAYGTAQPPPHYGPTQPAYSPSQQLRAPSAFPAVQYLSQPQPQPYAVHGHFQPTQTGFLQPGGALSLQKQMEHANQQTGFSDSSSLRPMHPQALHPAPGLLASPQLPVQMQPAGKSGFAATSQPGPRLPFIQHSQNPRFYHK
UniProt P03430: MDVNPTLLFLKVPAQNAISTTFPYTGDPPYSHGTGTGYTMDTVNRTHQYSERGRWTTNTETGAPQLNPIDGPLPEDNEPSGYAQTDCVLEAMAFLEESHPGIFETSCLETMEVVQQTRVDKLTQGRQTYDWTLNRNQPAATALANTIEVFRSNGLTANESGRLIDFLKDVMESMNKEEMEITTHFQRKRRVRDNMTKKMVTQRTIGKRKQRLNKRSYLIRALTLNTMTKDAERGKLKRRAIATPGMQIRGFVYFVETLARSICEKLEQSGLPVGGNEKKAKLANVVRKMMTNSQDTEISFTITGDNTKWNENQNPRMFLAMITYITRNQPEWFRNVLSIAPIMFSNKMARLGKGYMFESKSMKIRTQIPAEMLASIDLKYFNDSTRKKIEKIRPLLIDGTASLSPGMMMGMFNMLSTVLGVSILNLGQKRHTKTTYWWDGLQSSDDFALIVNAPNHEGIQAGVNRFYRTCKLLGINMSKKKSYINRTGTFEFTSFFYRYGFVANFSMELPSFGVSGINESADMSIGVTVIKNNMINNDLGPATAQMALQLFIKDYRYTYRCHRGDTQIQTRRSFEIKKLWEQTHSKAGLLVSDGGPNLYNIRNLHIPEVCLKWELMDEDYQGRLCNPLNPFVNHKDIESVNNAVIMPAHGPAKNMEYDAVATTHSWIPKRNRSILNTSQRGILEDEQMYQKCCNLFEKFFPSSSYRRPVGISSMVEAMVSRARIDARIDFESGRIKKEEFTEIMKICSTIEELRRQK
UniProt P15682: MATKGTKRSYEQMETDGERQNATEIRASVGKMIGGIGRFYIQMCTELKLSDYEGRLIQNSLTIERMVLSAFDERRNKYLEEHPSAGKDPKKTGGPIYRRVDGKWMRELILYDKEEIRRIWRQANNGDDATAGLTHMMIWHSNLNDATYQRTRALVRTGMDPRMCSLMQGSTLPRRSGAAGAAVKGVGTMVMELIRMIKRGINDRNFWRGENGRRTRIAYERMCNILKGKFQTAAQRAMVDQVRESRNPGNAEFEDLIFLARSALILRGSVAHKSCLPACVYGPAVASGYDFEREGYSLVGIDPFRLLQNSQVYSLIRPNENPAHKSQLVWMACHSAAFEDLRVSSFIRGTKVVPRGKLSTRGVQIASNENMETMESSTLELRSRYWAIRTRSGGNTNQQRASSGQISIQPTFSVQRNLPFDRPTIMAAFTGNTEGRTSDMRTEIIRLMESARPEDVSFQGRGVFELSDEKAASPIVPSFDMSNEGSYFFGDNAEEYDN
UniProt P03427: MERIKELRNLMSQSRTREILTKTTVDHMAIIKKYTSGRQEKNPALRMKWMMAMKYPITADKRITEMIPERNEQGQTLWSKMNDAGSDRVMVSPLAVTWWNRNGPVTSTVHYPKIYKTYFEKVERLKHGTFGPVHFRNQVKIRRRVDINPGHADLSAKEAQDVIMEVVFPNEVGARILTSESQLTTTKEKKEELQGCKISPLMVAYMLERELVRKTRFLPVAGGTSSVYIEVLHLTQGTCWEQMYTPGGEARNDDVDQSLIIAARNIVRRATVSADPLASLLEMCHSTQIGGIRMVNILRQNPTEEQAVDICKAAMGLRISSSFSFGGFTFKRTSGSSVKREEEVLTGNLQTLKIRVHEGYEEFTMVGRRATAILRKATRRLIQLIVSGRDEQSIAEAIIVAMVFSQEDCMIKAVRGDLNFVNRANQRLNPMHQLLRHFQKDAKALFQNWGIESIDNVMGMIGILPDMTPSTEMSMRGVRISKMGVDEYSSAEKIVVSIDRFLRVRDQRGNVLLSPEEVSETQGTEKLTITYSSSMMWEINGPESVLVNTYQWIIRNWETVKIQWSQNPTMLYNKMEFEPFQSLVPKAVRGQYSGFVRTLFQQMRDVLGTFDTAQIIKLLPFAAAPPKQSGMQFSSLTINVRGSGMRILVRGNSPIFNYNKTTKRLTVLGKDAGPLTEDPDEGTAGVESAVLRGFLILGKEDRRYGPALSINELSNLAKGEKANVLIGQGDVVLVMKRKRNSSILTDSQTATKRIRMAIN

Q: Which binding does the source give for “PB1 of A/WSN/33 (H1N1) in infected cells (from UniProt P03430 1-757)” here?
A: The binding was “binds”.

Q: Which binding does the source give for “NP of A/WSN/33 (H1N1) in infected cells (from UniProt P15682 1-498)” here?
A: The binding was “binds”.

Q: “PB2 of A/WSN/33 (H1N1) in infected cells (from UniProt P03427 1-759)” was tested. Which binding did it give?
A: The binding was “binds”.
